Reference: patent US20100240074A1 (priority 2007, published 2010)
At least one compound was matched to its structure with a doubt left.

Test system: super barrier-free YKO (SBF-YKO) knockout strains
Test: Identification of target molecule using super barrier-free YKO (sensitivity ranking by area score)
Format: cell-based, Saccharomyces cerevisiae
Method: Identification of a target molecule of lovastatin was conducted using the super barrier-free YKO (SBF-YKO) composed of 4,044 strains prepared as above. The SBF-YKO strains were inoculated into twelve 384-well plates (1 strain/well) in an ordered manner, and subjected to 3 to 7 days of static culture to equalize the number of cells across all strains. The cells were diluted 196-fold, thereby obtaining a cell dilution.
On the other hand, 384-well plates in which 20 μl of YPAD medium containing 3.9 μM lovastatin was added to each well, and 384-well plates in which 20 μl of lovastatin-free YPAD medium was added to each well were prepared. 5 μl of the obtained cell dilution was added to each well. By this operation, the cells were diluted 1000-fold and the compound concentration was adjusted to 3.125 μM.
These cells were cultured at 25° C., and light absorbance thereof at 650 nm was measured over time using a plate reader (SPECTRAMAX340PC384, Molecular Devices) from about 22 hours to 48 hours after the beginning of the culture. The area scores (ARS) were calculated based on the obtained data, thereby ranking the sensitivity.
In the same manner as in Example 6, identification of a target molecule of rapamycin was conducted using super barrier-free YKO (SBF-YKO). Each of the SBF-YKO strains was subjected to 3 to 7 days of static culture to equalize the number of cells across all strains. […]

CO[C@H]1C[C@@H]2CC[C@@H](C)[C@@](O)(O2)C(=O)C(=O)N2CCCC[C@H]2C(=O)O[C@H]([C@H](C)C[C@@H]2CC[C@@H](O)[C@H](OC)C2)CC(=O)[C@H](C)/C=C(\C)[C@@H](O)[C@@H](OC)C(=O)[C@H](C)C[C@H](C)/C=C/C=C/C=C/1C [rapamycin]
concentration allowing target identification with SBF-YKO relative to that of YKO (SBF-YKO versus YKO): one tenth | sensitivity of TOR1 gene knockout strain (SBF-YKO, rapamycin 1 nM): high sensitivity
